For part of these data: For at least one entry, the source does not settle the construct or the ends of the probe.

One data set has as its system HgaI. The data set is described as follows: enzyme reaction in vitro. The note with it: purified recombinant protein, protein details: New England Biolabs.
The subject of another data set is MphR (Escherichia coli). The data set is described as follows: inhibition of the protein. The note with it: increasing MphR (0-3 uM) reduces HgaI/TMSD rate; NEBuffer 1.1; derepressed by erythromycin; purified recombinant protein; protein details: C-terminal His-tag (pET-28a).

Take “ATAAAGACGCGAATATAACCGACGTGACTGTTACATTTAGGTGG (double strand) [S_Ery]”: the “activity on this sequence” value in the data set with HgaI and in the data set on MphR (Escherichia coli) was “active” each time.
With “ATAAAGACGCTCCCTATCAGTGATAGAGA (double strand) [S_Tc]”, the “activity on this sequence” value in the data set on HgaI (HgaI cleavage 5 nt downstream of GACGC, inhibited by TetR, restored by tetracycline, NEBuffer 1.1) is reported as “active”.

For the origin of these results see patent publication US20220042081.
